In PubChem BioAssay AID330 (DTP/NCI, 2004):
The list is a part of this screen's results and no random one: it is rich in T/C values a quarter to a half above the control, in often repeated tests (any T/C) and in doses without a T/C. Further doses and runs are listed elsewhere. T/C: endpoint of the treated group in % of that of the vehicle group. Some doses have a count of surviving animals in place of a T/C: the source holds a T/C of zero for them, seemingly a mark for toxic or unscored doses. Some survivor counts are full or nearly so, which does not show that the dose was tolerated: the source hardly ever lists a survival T/C far under the control, and the zero likely stands for such cases as well. Counts of survivors are from the toxicity check (mostly the fifth day) where no day follows; animals may have died later. Schedules are NCI's codes, taken here to give the interval after Q, in days (D) or hours (H), and the number of doses after X. For survival time, the PubChem record calls one and a half times the control and up active, and a quarter to a half above the control has no call in these data; cut-offs in other NCI protocols can differ. Some T/C values carry the count of animals alive at the toxicity check (mostly the fifth day); where none is given, no animal had died by that day. Some doses were run more than once; the values are given in rising order. Additions like (4×) say how often a value occurs here.

Tested on: P388 leukemia ip, CD2F1 mice, survival T/C
Assay: NCI In Vivo Anticancer Drug Screen. Data for tumor model P388 Leukemia (intraperitoneal) in CD2F1 (CDF1) mice
Conditions: T/C endpoint: median survival time, higher T/C = longer survival

Cc1c2ccncc2c(C)c2c1[nH]c1ccccc12
T/C (dose: 1.56 mg/kg/injection, schedule: Q01DX009 (ip), vehicle: saline with Tween-80): 127 % of control | T/C (dose: 5.0 mg/kg/injection, schedule: Q01DX005 (ip), vehicle: Klucel (hydroxypropylcellulose) (HPC)): 129 % of control | T/C (dose: 5.0 mg/kg/injection, schedule: Q04DX003 (ip), vehicle: distilled water + Tween-80): 127 % of control | T/C (dose: 6.25 mg/kg/injection, schedule: Q04DX003 (ip), vehicle: alkali diluted with water): 140 % of control | T/C (dose: 7.78 mg/kg/injection, schedule: Q04DX003 (ip), vehicle: saline with Tween-80): 136 % of control | T/C (dose: 10.0 mg/kg/injection, schedule: Q01DX005 (iv), vehicle: saline with Tween-80): 125 % of control | T/C (dose: 10.0 mg/kg/injection, schedule: Q04DX003 (ip), vehicle: distilled water + Tween-80): 145 % of control | T/C (dose: 10.0 mg/kg/injection, schedule: Q04DX003 (ip), vehicle: water): 129 % of control | T/C (dose: 12.5 mg/kg/injection, schedule: Q04DX002 (ip), vehicle: distilled water + Tween-80, evaluated on day 30): 119, 123 (2×), 126, 128, 130, 131, 134 (2×), 139 % of control | T/C (dose: 12.5 mg/kg/injection, schedule: Q04DX002 (ip), vehicle: distilled water + Tween-80, evaluated on day 35): 126 % of control | T/C (dose: 12.5 mg/kg/injection, schedule: Q04DX002 (ip), vehicle: saline with Tween-80): 122, 123, 139, 142 % of control | T/C (dose: 12.5 mg/kg/injection, schedule: Q04DX003 (ip), vehicle: clinical formulation, evaluated on day 30): 144 % of control | T/C (dose: 12.5 mg/kg/injection, schedule: Q04DX003 (ip), vehicle: clinical formulation, evaluated on day 35): 142 % of control [5 of 6 alive] | T/C (dose: 12.5 mg/kg/injection, schedule: Q04DX003 (ip), vehicle: distilled water + Tween-80, evaluated on day 30): 123, 124, 124 [5 of 6 alive], 125, 127, 129, 133, 134, 136 (3×), 138, 140 (2×), 142 (2×), 143, 145, 148, 150, 153 % of control (2×) | T/C (dose: 12.5 mg/kg/injection, schedule: Q04DX003 (ip), vehicle: distilled water + Tween-80, evaluated on day 35): 127 % of control | T/C (dose: 12.5 mg/kg/injection, schedule: Q04DX003 (ip), vehicle: distilled water + Tween-80, evaluated on day 45): 146 % of control | T/C (dose: 12.5 mg/kg/injection, schedule: Q04DX003 (ip), vehicle: distilled water + Tween-80, evaluated on day 60): 130 % of control | T/C (dose: 12.5 mg/kg/injection, schedule: Q04DX003 (ip), vehicle: saline with Tween-80): 128, 132, 147, 154, 175 % of control | T/C (dose: 12.5 mg/kg/injection, schedule: Q04DX003 (ip), vehicle: saline): 129 (2×), 145, 147, 158 % of control | T/C (dose: 12.5 mg/kg/injection, schedule: Q04DX003 (ip), vehicle: water): 129 % of control | T/C (dose: 13.0 mg/kg/injection, schedule: Q04DX003 (ip), vehicle: saline with Tween-80): 143, 156, 157, 167 % of control | T/C (dose: 20.0 mg/kg/injection, schedule: Q04DX003 (ip), vehicle: distilled water + Tween-80): 139 % of control | T/C (dose: 20.0 mg/kg/injection, schedule: Q04DX003 (ip), vehicle: water): 146 % of control [5 of 6 alive] | T/C (dose: 20.0 mg/kg/injection, schedule: Q04DX003 (iv), vehicle: distilled water + Tween-80): 125 % of control | T/C (dose: 21.6 mg/kg/injection, schedule: Q04DX002 (ip), vehicle: saline with Tween-80): 145 % of control | T/C (dose: 21.6 mg/kg/injection, schedule: Q04DX003 (ip), vehicle: saline with Tween-80): 161, 167, 173, 176 % of control | T/C (dose: 25.0 mg/kg/injection, schedule: Q04DX002 (ip), vehicle: distilled water + Tween-80, evaluated on day 30): 135, 141 (2×), 144, 145, 146 (2×), 148, 153, 174 % of control | T/C (dose: 25.0 mg/kg/injection, schedule: Q04DX002 (ip), vehicle: distilled water + Tween-80, evaluated on day 35): 145 % of control | T/C (dose: 25.0 mg/kg/injection, schedule: Q04DX002 (ip), vehicle: saline with Tween-80): 144 (2×), 163, 164, 168 % of control | T/C (dose: 25.0 mg/kg/injection, schedule: Q04DX003 (ip), vehicle: distilled water + Tween-80, evaluated on day 30): 139, 142, 144, 145 (3×), 146, 149, 150, 155 (2×), 156, 157 (3×), 163, 166, 167, 168, 171 (2×), 179 % of control | T/C (dose: 25.0 mg/kg/injection, schedule: Q04DX003 (ip), vehicle: distilled water + Tween-80, evaluated on day 35): 137 % of control | T/C (dose: 25.0 mg/kg/injection, schedule: Q04DX003 (ip), vehicle: distilled water + Tween-80, evaluated on day 45): 157 % of control | T/C (dose: 25.0 mg/kg/injection, schedule: Q04DX003 (ip), vehicle: distilled water + Tween-80, evaluated on day 60): 144 % of control | T/C (dose: 25.0 mg/kg/injection, schedule: Q04DX003 (ip), vehicle: saline with Tween-80): 153, 156, 166, 190, 193 % of control | T/C (dose: 25.0 mg/kg/injection, schedule: Q04DX003 (ip), vehicle: saline): 140, 150, 152, 165, 166 % of control | T/C (dose: 36.0 mg/kg/injection, schedule: Q04DX003 (ip), vehicle: saline with Tween-80): 185, 192, 213 % of control (2×) | survivor count (dose: 40.0 mg/kg/injection, schedule: Q01DX005 (iv), vehicle: saline with Tween-80): 0 of 6 | T/C (dose: 40.0 mg/kg/injection, schedule: Q04DX003 (ip), vehicle: distilled water + Tween-80): 145 % of control | survivor count (dose: 40.0 mg/kg/injection, schedule: Q04DX003 (ip), vehicle: water): 6 of 6 | survivor count (dose: 40.0 mg/kg/injection, schedule: Q04DX003 (iv), vehicle: distilled water + Tween-80): 4 of 6 | T/C (dose: 43.2 mg/kg/injection, schedule: Q04DX002 (ip), vehicle: saline with Tween-80): 136 % of control | T/C (dose: 50.0 mg/kg/injection, schedule: Q04DX002 (ip), vehicle: distilled water + Tween-80, evaluated on day 30): 140, 146, 160, 162, 166, 167, 171, 172, 173, 174 % of control | T/C (dose: 50.0 mg/kg/injection, schedule: Q04DX002 (ip), vehicle: distilled water + Tween-80, evaluated on day 35): 151 % of control | T/C (dose: 50.0 mg/kg/injection, schedule: Q04DX002 (ip), vehicle: saline with Tween-80): 149, 164, 166, 180, 196 % of control | T/C (dose: 50.0 mg/kg/injection, schedule: Q04DX003 (ip), vehicle: clinical formulation): 125 % of control
